This note sets out measurements from patent US20210171970A1 (CURATORS OF THE UNIVERSITY OF MISSOURI, published 2021).

Results are given in words; binding and its absence hold for the method and conditions named. Binding seen in cells or lysates may run through a third protein. Some results given as binding are weak or reduced against the parent protein; the word gives no strength.

The target in this test is T1, beta-carboxyltransferase (β-CT) subunit of hetACCase, ATCG00500, Arabidopsis thaliana (Arabidopsis thaliana) (UniProt P56765).
T1 sequence (looked up): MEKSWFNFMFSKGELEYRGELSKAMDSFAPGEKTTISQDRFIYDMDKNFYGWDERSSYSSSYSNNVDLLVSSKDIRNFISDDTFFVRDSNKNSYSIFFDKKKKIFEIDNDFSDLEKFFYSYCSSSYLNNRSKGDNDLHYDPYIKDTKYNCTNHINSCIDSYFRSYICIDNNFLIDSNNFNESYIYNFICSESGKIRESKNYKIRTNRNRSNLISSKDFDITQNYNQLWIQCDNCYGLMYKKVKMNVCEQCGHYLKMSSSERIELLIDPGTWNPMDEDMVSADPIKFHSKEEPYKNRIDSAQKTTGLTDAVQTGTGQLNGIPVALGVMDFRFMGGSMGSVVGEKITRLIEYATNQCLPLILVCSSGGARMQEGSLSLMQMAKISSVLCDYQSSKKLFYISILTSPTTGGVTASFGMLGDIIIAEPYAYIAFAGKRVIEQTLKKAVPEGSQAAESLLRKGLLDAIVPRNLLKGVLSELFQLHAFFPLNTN
Kind of test: co-IP from A. thaliana chloroplast lysate with anti-α-CT polyclonal antibody, LC-MS/MS.

B1: alpha-carboxyltransferase (α-CT) subunit of hetACCase, AT2G38040, Arabidopsis thaliana (enzyme, UniProt Q9LD43 55-769, looked up)
chain: SRLKKGKKFEHPWPANPDPNVKGGVLSYLAEFKPLGDTQKPVTLDFEKPLVELEKKIVDVRKMANETGLDFTEQIITLENKYRQALKDLYTHLTPIQRVNIARHPNRPTFLDHIHNITDKFMELHGDRAGYDDPAIVTGIGTIDGKRYMFIGHQKGRNTKENIMRNFGMPTPHGYRKALRMMYYADHHGFPIVTFIDTPGAYADLKSEELGQGEAIANNLRTMFGLKVPILSIVIGEGGSGGALAIGCANKMLMLENAVFYVASPEACAAILWKTSKAAPEAAEKLRITSKELVKLNVADGIIPEPLGGAHADPSWTSQQIKIAINENMNEFGKMSGEELLKHRMAKYRKIGVFIEGEPIEPSRKINMKKREAVFSDSRKLQGEVDKLKEQILKAKETSTEAEPSSEVLNEMIEKLKSEIDDEYTEAAIAVGLEERLTAMREEFSKASSEEHLMHPVLIEKIEKLKEEFNTRLTDAPNYESLKSKLNMLRDFSRAKAASEATSLKKEINKRFQEAVDRPEIREKVEAIKAEVASSGASSFDELPDALKEKVLKTKGEVEAEMAGVLKSMGLELDAVKQNQKDTAEQIYAANENLQEKLEKLNQEITSKIEEVVRTPEIKSMVELLKVETAKASKTPGVTEAYQKIEALEQQIKQKIAEALNTSGLQEKQDELEKELAAARELAAEESDGSVKEDDDDDEDSSESGKSEMVNPSFA
On to B1, for which the binding result is “binds”.
